Source: article PMC9101739
No constants are given. Whether binding was seen depends on the method and setting. In cells and extracts the contact can be indirect.

The chains behind the UniProt entries cited, without tags or fusion partners.
UniProt Q6P179: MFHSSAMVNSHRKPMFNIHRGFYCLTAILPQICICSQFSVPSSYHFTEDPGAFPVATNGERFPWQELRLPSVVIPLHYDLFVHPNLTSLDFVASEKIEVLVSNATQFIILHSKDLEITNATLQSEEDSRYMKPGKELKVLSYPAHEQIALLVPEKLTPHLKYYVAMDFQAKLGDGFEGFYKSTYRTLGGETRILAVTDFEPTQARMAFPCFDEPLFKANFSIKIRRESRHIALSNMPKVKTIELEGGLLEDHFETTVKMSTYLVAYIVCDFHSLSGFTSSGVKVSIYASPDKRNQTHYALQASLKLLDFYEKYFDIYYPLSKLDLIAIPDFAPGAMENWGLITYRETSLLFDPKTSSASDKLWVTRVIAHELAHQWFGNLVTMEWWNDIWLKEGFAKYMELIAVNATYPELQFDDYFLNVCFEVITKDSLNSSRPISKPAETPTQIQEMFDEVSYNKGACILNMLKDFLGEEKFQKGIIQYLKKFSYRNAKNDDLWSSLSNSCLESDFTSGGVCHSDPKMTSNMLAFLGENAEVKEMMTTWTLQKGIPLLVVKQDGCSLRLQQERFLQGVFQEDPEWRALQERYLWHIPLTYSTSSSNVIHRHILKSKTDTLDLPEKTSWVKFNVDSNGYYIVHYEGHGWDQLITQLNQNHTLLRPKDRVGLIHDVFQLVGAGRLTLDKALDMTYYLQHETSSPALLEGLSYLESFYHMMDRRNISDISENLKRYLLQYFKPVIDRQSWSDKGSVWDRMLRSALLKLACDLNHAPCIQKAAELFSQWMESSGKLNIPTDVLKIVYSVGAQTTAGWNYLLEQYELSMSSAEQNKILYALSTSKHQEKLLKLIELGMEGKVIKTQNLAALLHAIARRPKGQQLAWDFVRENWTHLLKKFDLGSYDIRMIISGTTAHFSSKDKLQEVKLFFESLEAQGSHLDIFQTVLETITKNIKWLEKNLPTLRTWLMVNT
UniProt Q9UIQ6: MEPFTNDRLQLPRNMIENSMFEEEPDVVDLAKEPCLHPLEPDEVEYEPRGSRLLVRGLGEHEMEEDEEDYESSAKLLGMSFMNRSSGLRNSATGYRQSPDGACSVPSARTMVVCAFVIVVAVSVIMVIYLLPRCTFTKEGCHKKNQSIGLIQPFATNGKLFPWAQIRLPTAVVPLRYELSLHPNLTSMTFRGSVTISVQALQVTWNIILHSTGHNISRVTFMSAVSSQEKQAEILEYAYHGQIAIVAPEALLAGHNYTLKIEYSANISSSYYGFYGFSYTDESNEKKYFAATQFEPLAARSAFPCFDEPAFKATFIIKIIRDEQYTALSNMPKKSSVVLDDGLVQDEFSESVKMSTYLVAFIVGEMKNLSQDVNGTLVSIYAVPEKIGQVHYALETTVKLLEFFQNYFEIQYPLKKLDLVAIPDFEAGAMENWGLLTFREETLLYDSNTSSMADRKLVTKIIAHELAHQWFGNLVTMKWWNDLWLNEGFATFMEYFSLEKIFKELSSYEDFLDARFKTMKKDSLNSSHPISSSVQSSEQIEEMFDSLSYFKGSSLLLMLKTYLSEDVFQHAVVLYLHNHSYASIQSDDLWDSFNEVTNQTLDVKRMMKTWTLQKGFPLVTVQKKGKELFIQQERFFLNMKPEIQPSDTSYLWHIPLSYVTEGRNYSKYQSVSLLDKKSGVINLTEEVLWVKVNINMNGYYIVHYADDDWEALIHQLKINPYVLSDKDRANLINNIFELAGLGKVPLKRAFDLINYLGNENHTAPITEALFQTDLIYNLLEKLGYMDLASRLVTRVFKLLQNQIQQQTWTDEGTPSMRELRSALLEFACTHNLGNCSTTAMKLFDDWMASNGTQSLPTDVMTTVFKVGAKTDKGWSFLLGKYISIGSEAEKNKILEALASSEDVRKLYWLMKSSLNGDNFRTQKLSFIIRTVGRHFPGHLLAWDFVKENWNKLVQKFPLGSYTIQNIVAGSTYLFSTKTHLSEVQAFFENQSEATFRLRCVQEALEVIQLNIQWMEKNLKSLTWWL
UniProt Q9NZ08: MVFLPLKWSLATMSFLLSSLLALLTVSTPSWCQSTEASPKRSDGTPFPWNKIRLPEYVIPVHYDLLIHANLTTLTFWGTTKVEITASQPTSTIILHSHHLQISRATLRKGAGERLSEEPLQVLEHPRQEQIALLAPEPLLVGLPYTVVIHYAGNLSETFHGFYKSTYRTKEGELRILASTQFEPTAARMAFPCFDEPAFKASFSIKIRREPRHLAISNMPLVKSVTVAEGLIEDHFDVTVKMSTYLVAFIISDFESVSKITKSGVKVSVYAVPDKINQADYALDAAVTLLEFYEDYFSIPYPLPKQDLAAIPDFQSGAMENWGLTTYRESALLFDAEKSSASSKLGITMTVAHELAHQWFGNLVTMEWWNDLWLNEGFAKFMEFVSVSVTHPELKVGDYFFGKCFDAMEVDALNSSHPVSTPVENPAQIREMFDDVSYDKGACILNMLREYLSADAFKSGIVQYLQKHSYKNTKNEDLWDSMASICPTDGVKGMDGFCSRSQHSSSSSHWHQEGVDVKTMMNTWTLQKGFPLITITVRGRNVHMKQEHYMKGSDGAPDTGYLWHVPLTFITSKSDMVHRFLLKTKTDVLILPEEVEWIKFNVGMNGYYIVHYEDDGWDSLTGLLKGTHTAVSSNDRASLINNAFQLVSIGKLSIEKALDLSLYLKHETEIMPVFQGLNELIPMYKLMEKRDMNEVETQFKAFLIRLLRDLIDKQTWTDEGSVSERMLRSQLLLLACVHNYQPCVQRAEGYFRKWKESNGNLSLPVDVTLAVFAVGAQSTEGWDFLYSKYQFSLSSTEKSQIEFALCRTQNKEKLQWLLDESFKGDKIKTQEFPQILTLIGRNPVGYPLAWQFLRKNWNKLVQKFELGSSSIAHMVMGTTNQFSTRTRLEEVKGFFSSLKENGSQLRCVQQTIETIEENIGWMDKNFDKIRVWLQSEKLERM

Experiments:
[1] = molecular target: ERAP2 full length (canonical ERAP2 protein, 115 kDa) (human (endogenous in U937)) (UniProt Q6P179); assay: co-IP; MoAbs (anti-ERAP2, anti-IRAP, anti-ERAP1) cross-linked to resin with DSS (Pierce Crosslink Immunoprecipitation kit); 1 mg of pre-cleared total lysate of U937 cells, untreated or treated with 80 nM PMA for 96 h, incubated overnight at 4 °C; eluted with the kit's elution buffer; eluates blotted with the three MoAbs
[2] = molecular target: IRAP (product of the gene LNPEP) (human (endogenous in U937)) (UniProt Q9UIQ6); assay: as above

- binding [1]: no binding
- binding [2]: no binding
Substance: ERAP1 (from UniProt Q9NZ08 1-941) (enzyme)
